Assay results published in patent US20230322935A1 (published 2023).
Results are given in words; binding and its absence hold for the method and conditions named. Some binding calls cover weakened binding; strength is not graded here.

The chains behind the UniProt entries cited, without tags or fusion partners. Residues count along the entry.
UniProt Q9NPY3, residues 22-580: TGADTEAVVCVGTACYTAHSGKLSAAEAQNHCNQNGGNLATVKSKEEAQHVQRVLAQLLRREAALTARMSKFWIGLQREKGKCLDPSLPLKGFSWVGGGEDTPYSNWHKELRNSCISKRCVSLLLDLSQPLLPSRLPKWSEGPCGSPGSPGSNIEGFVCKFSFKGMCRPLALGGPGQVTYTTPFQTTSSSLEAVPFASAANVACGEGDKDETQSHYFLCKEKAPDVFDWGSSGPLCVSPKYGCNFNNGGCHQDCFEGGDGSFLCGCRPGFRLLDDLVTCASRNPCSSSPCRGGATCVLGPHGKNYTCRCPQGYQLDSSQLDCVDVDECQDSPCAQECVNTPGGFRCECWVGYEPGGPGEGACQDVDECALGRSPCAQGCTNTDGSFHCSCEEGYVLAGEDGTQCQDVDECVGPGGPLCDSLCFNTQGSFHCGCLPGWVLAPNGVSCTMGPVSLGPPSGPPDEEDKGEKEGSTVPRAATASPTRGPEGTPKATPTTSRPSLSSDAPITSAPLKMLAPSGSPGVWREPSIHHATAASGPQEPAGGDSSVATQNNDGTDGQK

Molecular target: His-tagged human CD93 (human) (UniProt Q9NPY3)
Experiment: ELISA, His-tagged human CD93 coated at 1 µg/mL, anti-mouse Fc-HRP

B1: mouse MMRN2-mFc (Fc fusion, UniProt A6H6E2 23-943, looked up, not shown: a dimerising Fc or GST)
chain: QDPGTKFSHLNRPGMPEGWRLGAEDTSRDPIRRNWCPYQKSRLVTFVAACKTEKFLVHSQQPCPQGAPDCQGVRVMYRVAQKPVYQVQQKVLISVDWRCCPGFQGPDCQDHNPTANPEPTEPSGKLQETWDSMDGFELGHPVPEFNEIKVPQEQQENLLQNLQNDAQSVEDGFPGSWEAPPSNLTDEMTEANLTEFEFPGRTSEHLLQPHIDAFLKAHFSPIWKNFNDSLHSLSQAIRNLSLDVEANHQAIKMIQEGTVARADFQELGAKFEAKVQQNSQRLGQLWQDVEDQLHAQRRSVHHALSDVQAEVSTKLKQLVKAQELPGANGSLVMASAAAAARPEPESLQARLGQLQRNLSALHMVTSQREEELQSTLKNMDSVLKQHAEEIKELYSESDETFDQISKVERQVEELLVNHTGLRELRVILMEKSLIMEENKEEIERQLLELNLTLQHLHAGHADLIKYVKDCNCQRVNSDVDVAPEGHRDVMHTLEETQVSLDEQHQLDGSSLQALQSTVDAMSSAMDAYRGEGERARAERARIRSQLRALDHAVEALKTAANGTRKEIRLLHGSFTALLEDALRHQAVLAALFGEEMIDEMSEEAPRPLPLDYEQIRLALQDAASGLQEQAIGWEDLATRVEALEKAAGGFVEQHPQLAEGLEPSHDSGREEEAMTLAELEQEIRRLSSDVKQIGQCCEASWAASLNSSLEDLHSMLLDTQHGLRQHRQLFHNLFQNFQGLVASNISLDLGKLQAMLSKKDKKQPRGPGESRKRDKKQVVMSTDAHAKGLELWETGSPVAFYAGSSEGATALQMVKFNTTSINVGSSYFPEHGYFRAPKRGVYLFAVSITFGPGPGMGQLVFEGHHRVPVYSTEQRGGSTATTFAMVELQKGERAWFELIQGSATKGSQPGTAFGGFLMFKT
With B1 the binding was “binds”.
